# According to US20200172911A1, “USP30 INHIBITORS AND METHODS OF USE” (Genentech, Inc., priority 2012, published 2020):
# pIC50: −log10 of the molar value. For at least one compound, name, drawing or mass did not settle the structure. Where a SMILES comes first, the peptide text is derived from it. Bridges are numbered along the chain shown (N, C = ends).
# Biological target: T1, UCHL3 (Homo sapiens, UniProt P15374)
# T1 sequence (P15374 1-230): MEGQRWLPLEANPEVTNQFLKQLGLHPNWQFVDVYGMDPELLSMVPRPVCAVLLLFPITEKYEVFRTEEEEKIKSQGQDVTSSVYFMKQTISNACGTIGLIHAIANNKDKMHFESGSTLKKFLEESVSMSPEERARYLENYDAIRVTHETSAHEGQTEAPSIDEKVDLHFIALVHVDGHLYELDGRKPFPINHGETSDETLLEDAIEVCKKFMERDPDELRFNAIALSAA
# Assay: ubiquitin-AMC DUB inhibition assay, UCHL3
# Type: biochemical
# Conditions: 250 nM ubiquitin-AMC, 0.05 nM UCHL3
structure (smiles),measurement,value
"CC(C)C[C@H](NC(=O)[C@@H]1CCCN1)C(=O)N[C@@H](Cc1ccc(O)cc1)C(=O)N[C@H]1CSSC[C@@H](C(=O)N[C@@H](Cc2ccccc2)C(=O)N[C@@H](Cc2ccc(O)cc2)C(=O)O)NC(=O)[C@H](CC(C)C)NC(=O)[C@H](Cc2ccc(O)cc2)NC(=O)CNC(=O)[C@H](Cc2ccc(O)cc2)NC(=O)[C@H]([C@@H](C)O)NC(=O)[C@H](CC(C)C)NC(=O)[C@H](CC(=O)O)NC(=O)[C@H](Cc2ccc(O)cc2)NC(=O)[C@H](Cc2ccccc2)NC1=O [USP30_3, PLYCFYDLTYGYLCFY] (H-PLYCFYDLTYGYLCFY-OH; disulfide 4-14; N-terminus and C-terminus assumed)",pIC50,< 3.70
